This note sets out measurements from paper PMC3210732, “Purification and characterization of novel fibrinolytic proteases as potential antithrombotic agents from earthworm Perionyx excavatus” (AMB Express, 2011).

Non-standard residues stand in square brackets, D forms with d. Residues, ends and D or L forms follow the SMILES beside them. *: point of attachment. Sta = CC(C)C[C@H](N)[C@@H](O)CC(=O)O; Isovaleryl = CC(C)CC(=O)*

For the data set, the system named is T1, FIII-3.
T1 construct: gene earthworm fibrinolytic protease; native, purified from earthworm autolysate; 31 kDa active protein together with 33 kDa protein (supposed zymogen)
Nature of the data set: caseinolytic inhibition assay. Format: biochemical, Perionyx excavatus. As to conditions: casein substrate, 50 mM sodium phosphate pH 7.5, 37 °C, 10 min, residual activity, control 100%. The source says: caseinolytic inhibition assay on FIII-3

Turning to `Cc1ccc(S(=O)(=O)N[C@@H](Cc2ccccc2)C(=O)CCl)cc1` [TPCK], the “Relative activity (%) / FIII-3” value (100 µM) is reported as 76%. `CC(C)CC(=O)N[C@H](C(=O)N[C@H](C(=O)N[C@@H](CC(C)C)[C@@H](O)CC(=O)N[C@@H](C)C(=O)N[C@@H](CC(C)C)[C@@H](O)CC(=O)O)C(C)C)C(C)C` [pepstatin] (Isovaleryl-VV[Sta]A[Sta]-OH): the “Relative activity (%) / FIII-3” value (1000 µM) amounted to 83%.
